Source: patent US5312928A, “Calcium channel antagonists and methodology for their identification” (priority 1991, dated 1994)

Molecular target: dihydropyridine binding sites on the L-type calcium channels
Set-up: species or system rat
Details: read-out: concentration giving 50% inhibition of [3H]nimodipine binding
Source text: Other compounds which act through the same binding site as the dihydropyridines will inhibit this [^3 H]nimodipine binding.

Compound COC(=O)C1=C(C)NC(C)=C(C(=O)OC)C1c1ccccc1[N+](=O)[O-] [nifedipine, reference compound] has an IC50 of about 20 nM.
